Measurements published in paper PMC9788154.
No constants are given. Whether binding was seen depends on the method and setting. In cells and extracts the contact can be indirect. Some binding calls cover weakened binding; strength is not graded here.

By UniProt entry, the sequences of proteins in these tests, tags left out.
UniProt P68831: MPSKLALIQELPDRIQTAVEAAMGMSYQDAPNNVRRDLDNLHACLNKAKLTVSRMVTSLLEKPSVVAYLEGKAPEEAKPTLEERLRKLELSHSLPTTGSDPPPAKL
UniProt Q66929: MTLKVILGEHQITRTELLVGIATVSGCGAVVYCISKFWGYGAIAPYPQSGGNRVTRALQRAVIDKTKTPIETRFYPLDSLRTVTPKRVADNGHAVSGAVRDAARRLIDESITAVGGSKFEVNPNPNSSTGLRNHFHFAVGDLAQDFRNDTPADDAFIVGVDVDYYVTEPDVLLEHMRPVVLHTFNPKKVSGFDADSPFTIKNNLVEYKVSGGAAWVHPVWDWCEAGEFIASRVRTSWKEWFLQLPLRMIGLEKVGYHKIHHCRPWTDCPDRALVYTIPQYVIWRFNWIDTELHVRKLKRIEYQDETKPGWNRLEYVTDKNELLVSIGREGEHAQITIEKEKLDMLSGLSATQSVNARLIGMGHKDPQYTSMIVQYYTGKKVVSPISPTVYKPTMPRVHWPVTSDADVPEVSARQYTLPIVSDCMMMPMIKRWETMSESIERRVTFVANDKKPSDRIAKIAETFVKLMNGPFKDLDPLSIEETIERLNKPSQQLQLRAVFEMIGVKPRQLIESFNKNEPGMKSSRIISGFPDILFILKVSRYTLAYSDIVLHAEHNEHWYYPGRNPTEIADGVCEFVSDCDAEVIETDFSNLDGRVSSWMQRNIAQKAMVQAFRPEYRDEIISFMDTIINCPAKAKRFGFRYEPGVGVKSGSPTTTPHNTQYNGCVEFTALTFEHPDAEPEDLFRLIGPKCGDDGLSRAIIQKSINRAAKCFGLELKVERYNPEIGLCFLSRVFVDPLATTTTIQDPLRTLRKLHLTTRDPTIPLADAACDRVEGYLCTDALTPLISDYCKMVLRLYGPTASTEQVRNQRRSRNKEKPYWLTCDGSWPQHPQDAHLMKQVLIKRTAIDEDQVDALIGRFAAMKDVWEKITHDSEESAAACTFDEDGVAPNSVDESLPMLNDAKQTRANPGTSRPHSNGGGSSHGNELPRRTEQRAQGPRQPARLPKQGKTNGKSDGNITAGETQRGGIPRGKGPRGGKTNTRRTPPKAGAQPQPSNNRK

Legend:
[1] = target: Flock House nodavirus (FHV) protein B2 (Flock House nodavirus (FHV)) (UniProt P68831); test: co-IP
[2] = target: Flock House nodavirus (FHV) protein A (Flock House nodavirus (FHV)) (UniProt Q66929); test: co-IP

| Substance | binding [1] | binding [2] |
| --- | --- | --- |
| Flock House nodavirus (FHV) protein A (from UniProt Q66929 1-998) | binds | – |
| Flock House nodavirus (FHV) protein B2 (from UniProt P68831 1-106) | – | binds |
